Drawing on patent publication US20250382361A1, “AFFIBODIES, HYDROGELS CONTAINING AFFIBODIES, AND USES THEREOF” (University of Oregon, priority 2024, published 2025), this text covers binding for 31 molecules.

By UniProt entry, the sequences of proteins in these tests, tags left out. Where a name states a change or a piece, a line headed by the entry shows the natural chain unless it says otherwise. Chains listed by the source or under a name are the forms on record and can include a tag or linker. Residues count along the entry.
UniProt P04141, residues 18-144: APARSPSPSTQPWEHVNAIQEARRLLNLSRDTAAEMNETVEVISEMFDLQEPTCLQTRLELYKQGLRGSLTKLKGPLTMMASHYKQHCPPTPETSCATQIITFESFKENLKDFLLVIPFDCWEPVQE
Recombinant VEGF165 (vascular endothelial growth factor) (P15692, form named): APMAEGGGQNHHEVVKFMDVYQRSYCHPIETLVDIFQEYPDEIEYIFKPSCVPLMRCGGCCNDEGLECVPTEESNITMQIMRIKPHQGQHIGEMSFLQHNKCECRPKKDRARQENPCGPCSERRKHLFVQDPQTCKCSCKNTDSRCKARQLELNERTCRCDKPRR
UniProt P09038, residues 143-288: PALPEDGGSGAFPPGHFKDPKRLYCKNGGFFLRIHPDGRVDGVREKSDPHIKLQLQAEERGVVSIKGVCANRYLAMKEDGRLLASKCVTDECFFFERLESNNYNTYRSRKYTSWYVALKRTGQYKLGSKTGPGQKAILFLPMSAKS

No constants are given. Whether binding was seen depends on the method and setting. Some binding calls cover weakened binding; strength is not graded here.

To fix the notation:
B1: GM-CSF affibody GM3-C2 (SEQ ID NO: 18), yeast-displayed (designed binder)
chain: AEAKYNKEWYNAISVIFYLPNLTGFQRAAFVDALGDDPSQSSELLSEAKKLNDSQAPK
B2: GDNF affibody A2 (SEQ ID NO: 66) (designed binder)
chain: AEAKYNKEKPNAVGEISVLPNLTEFQMVAFIFALVNDPSQSSELLSEAKKLNDSQAPK
B3: GDNF affibody A1 (SEQ ID NO: 65) (designed binder)
chain: AEAKYNKEQVYASDSIQVLPNLTATQRVAFDPALHNDPSQSSELLSEAKKLNDSQAPK
B4: GDNF affibody B4 (SEQ ID NO: 68) (designed binder)
chain: AEAKYTKERHDATLVIHVLPNLTDARILAFIVALSNDPSQSSELLSEAKKLNDSQAPK
B5: GDNF affibody B7 (SEQ ID NO: 70) (designed binder)
chain: AEAKYSKEWYDAYLVIFVLPNLTQFQRPAFPPALKNDPSQSSELLSEAKKLNDSQAPK
B6: GDNF affibody A3 (SEQ ID NO: 67) (designed binder)
chain: AEAKYAKEWTTANYSIGVLPNLTLTQRYAFETALFDDPSQSSELLSEAKKLNDSQAPK
B7: VEGF affibody BR7 (SEQ ID NO: 38) (designed binder)
chain: AEAKYAKELLNAFDEIYGLPNLTVGQRMAFCDALINDPSQSSELLSEAKKLNDSQAPK
B8: VEGF affibody BR3 (SEQ ID NO: 35) (designed binder)
chain: AEAKYTKERDDASLEIAYLPNLTPYQLMAFFFALSNDPSQSSELLSEAKKLNDSQAPK
B9: VEGF affibody L4 (SEQ ID NO: 25) (designed binder)
chain: AEAKYAKELDDAFFEIASLPNLTGFQLHAFAVALGNDPSQSSELLSEAKKLNDSQAPK
B10: VEGF affibody L3 (SEQ ID NO: 24) (designed binder)
chain: AEAKYYKERYAANYSIWVLPNLTLLQRFAFFFALSNDPSQSSELLSEAKKLNDSQAPK
B11: VEGF affibody BR6 (SEQ ID NO: 37) (designed binder)
chain: AEAKYAKEWEDAINEIWCLPNLTEYQRIAFVSALYNDPSQSSELLSEAKKLNDSQAPK
B12: VEGF affibody L5 (SEQ ID NO: 26) (designed binder)
chain: AEAKYNKERDSAYSVIWGLPNLTDSQKAAFGYALYNDPSQSSELLSEAKKLNDSQAPK
B13: VEGF affibody TM4 (SEQ ID NO: 39) (designed binder)
chain: AEAKYYKEWYDAFVVIDALPNLTAYQREAFIFALVNDPSQSSELLSEAKKLNDSQAPK
B14: VEGF affibody BR1 (SEQ ID NO: 34) (designed binder)
chain: AEAKYTKEWYAAVVQIGYLPNLTAFQRAAFSFALSNDPSQSSELLSEAKKLNDSQAPK
B15: VEGF affibody L8 (SEQ ID NO: 28) (designed binder)
chain: AEAKYNKEWYDAILEIGFLPNLTGHQRDAFSDALVDDPSQSSELLSEAKKLNDSQAPK
B16: VEGF affibody L1 (SEQ ID NO: 23) (designed binder)
chain: AEAKYYKEWNAAYVVINGLPNLTRRQREAFVHALVDDPSQSSELLSEAKKLNDSQAPK
B17: VEGF affibody BM7 (SEQ ID NO: 33) (designed binder)
chain: AEAKYAKEGATAFGSIPYLPNLTDVQRYAFIVALLDDPSQSSELLSEAKKLNDSQAPK
B18: VEGF affibody TM7 (SEQ ID NO: 41) (designed binder)
chain: AEAKYTKEVDYAACVIAYLPNLTGVQVYAFYRALADDPSQSSELLSEAKKLNDSQAPK
B19: VEGF affibody BM2 (SEQ ID NO: 31) (designed binder)
chain: AEAKYAKEWFYAYHVIYDLPNLTGFQKHAFYLALYDDPSQSSELLSEAKKLNDSQAPK
B20: VEGF affibody TM6 (SEQ ID NO: 40) (designed binder)
chain: AEAKYYKEWVDAYLVIDSLPNLTRLQVEAFVFALVNDPSQSSELLSEAKKLNDSQAPK
B21: FGF-2 affibody FG4-C1 (SEQ ID NO: 52) (designed binder)
chain: AEAKYSKEVYSAYDVIFALPNLTQYQVLAFFDALCDDPSQSSELLSEAKKLNDSQAPK
B22: FGF-2 affibody FG1_C1 (SEQ ID NO: 45) (designed binder)
chain: AEAKYTKEGCDAYTEIVDLPNLTGYQRRAFYWALENDPSQSSELLSEAKKLNDSQAPK
B23: FGF-2 affibody FG4-C4 (SEQ ID NO: 55) (designed binder)
chain: AEAKYAKEGCTAFLEIAALPNLTGYQRDAFIEALFDDPSQSSELLSEAKKLNDSQAPK
B24: FGF-2 affibody FG3-C3 (SEQ ID NO: 51) (designed binder)
chain: AEAKYAKELDAAYVVIYFLPNLTHCQMVAFLHALSDDPSQSSELLSEAKKLNDSQAPK
B25: FGF-2 affibody FG3_C2 (SEQ ID NO: 50) (designed binder)
chain: AEAKYYKEGYNAIVEIRCLPNLTDCQVAAFIDALDDDPSQSSELLSEAKKLNDSQAPK
B26: FGF-2 affibody FG1_C4 (SEQ ID NO: 48) (designed binder)
chain: AEAKYSKEGFYADWVIPVLPNLTRKQRVAFHDALHNDPSQSSELLSEAKKLNDSQAPK
B27: FGF-2 affibody FG2-C3 (SEQ ID NO: 49) (designed binder)
chain: AEAKYAKEWLDAIDVIGYLPNLTDFQRGAFYDALNDDPSQSSELLSEAKKLNDSQAPK
B28: FGF-2 affibody FG4-C3 (SEQ ID NO: 54) (designed binder)
chain: AEAKYAKEGFNAVNVIWPLPNLTADQVCAFICALADDPSQSSELLSEAKKLNDSQAPK
B29: FGF-2 affibody FG4-C2 (SEQ ID NO: 53) (designed binder)
chain: AEAKYAKERLTAVCSIVALPNLTEGQMVAFDDALHDDPSQSSELLSEAKKLNDSQAPK
B30: FGF-2 affibody FG1_C2 (SEQ ID NO: 46) (designed binder)
chain: AEAKYNKEMPDANCQIAFLPNLTQYQVPAFIYALCNDPSQSSELLSEAKKLNDSQAPK
B31: FGF-2 affibody FG1_C3 (SEQ ID NO: 47) (designed binder)
chain: AEAKYNKEGEDATTQIGSLPNLTQAQKHAFAVALGNDPSQSSELLSEAKKLNDSQAPK

The target in the first assay is Granulocyte-macrophage colony-stimulating factor (GM-CSF), biotinylated (UniProt P04141). Briefly: yeast surface display, flow cytometry. (In general: Flow cytometry measures light scatter and fluorescence of single cells or particles in a stream.)
B1: the binding result is “binds”.

In a further assay the target is T1, Glial derived neurotrophic factor (GDNF) (UniProt P39905).
T1 sequence (looked up): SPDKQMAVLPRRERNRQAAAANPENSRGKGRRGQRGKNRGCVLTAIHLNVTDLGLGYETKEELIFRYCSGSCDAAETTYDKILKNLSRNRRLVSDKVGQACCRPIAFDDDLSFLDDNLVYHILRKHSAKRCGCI
Put plainly: yeast surface display, flow cytometry.
Regarding B2, the binding result is recorded as “binds”.
Same read-out and setting: the result for B3 reads “binds”; that for B4, “binds”; that for B5, “binds”.
Turning to B6, the binding result was “binds”.

For the next assay, the target named is Recombinant VEGF165 (vascular endothelial growth factor) (UniProt P15692). Put plainly: yeast surface display sorting (MACS, FACS).
As to B7, the binding entry was “binds”.
Same read-out and setting: as for B8, the entry is “binds”; as for B9, “binds”; as for B10, “binds”.
As to B11, the binding result is recorded as “binds”.
Take B12: the binding entry is “binds”.
B13: the binding entry is “binds”.
For the molecule B14, the binding result is “binds”.
B15: the binding entry is recorded as “binds”.
As to B16, the binding result was “binds”.
As for B17, the binding entry is reported as “binds”.
Turning to B18, the binding result is reported as “binds”.
Turning to B19, the binding entry is on record as “binds”.
As for B20, the binding result is on record as “binds”.

For a further assay, the target named is Recombinant FGF-2 (fibroblast growth factor 2) (UniProt P09038). Briefly: yeast surface display sorting (MACS, FACS).
Consider B21, for which the binding result was “binds”.
For the molecule B22, the binding entry was “binds”.
On to B23, for which the binding result is “binds”.
For the molecule B24, the binding result is recorded as “binds”.
In the case of B25, the binding entry was “binds”.
In the case of B26, the binding entry is recorded as “binds”.
The same measure, in the same setting: the result for B27 reads “binds”.
Same read-out and setting: the result for B28 reads “binds”; that for B29, “binds”.
On the same count and under the same terms, the result for B30 reads “binds”; that for B31, “binds”.
